Publication PMC12569825
Results are given in words; binding and its absence hold for the method and conditions named. In cells and extracts the contact can be indirect. These calls come from enrichment with a bait or labelling near it, and not all partners need be listed.

The chains behind the UniProt entries cited, without tags or fusion partners.
UniProt Q96PU5: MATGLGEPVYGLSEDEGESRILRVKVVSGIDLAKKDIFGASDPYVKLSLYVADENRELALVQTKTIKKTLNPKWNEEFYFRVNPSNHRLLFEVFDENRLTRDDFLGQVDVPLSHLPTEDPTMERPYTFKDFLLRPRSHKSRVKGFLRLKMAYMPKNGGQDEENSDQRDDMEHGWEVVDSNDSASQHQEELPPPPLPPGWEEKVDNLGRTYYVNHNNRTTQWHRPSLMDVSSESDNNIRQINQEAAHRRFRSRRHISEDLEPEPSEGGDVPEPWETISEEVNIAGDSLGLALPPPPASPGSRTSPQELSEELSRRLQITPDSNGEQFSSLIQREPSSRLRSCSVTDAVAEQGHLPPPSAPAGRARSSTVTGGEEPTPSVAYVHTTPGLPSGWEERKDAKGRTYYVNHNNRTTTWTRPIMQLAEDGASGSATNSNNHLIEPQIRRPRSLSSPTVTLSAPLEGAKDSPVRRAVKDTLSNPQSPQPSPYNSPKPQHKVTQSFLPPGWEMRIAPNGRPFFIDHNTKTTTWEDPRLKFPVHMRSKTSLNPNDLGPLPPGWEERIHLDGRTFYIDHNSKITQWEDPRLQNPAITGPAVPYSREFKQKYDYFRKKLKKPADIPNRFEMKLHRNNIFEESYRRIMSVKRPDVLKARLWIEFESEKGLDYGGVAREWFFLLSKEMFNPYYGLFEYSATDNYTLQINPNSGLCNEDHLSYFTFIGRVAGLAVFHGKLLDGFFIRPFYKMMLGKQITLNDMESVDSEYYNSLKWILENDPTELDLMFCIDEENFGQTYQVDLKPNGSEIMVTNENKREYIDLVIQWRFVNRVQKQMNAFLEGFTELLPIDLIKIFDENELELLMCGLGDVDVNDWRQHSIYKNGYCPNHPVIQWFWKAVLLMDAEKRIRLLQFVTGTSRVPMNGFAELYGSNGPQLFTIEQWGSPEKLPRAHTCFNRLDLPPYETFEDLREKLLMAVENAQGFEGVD
UniProt Q6XZF7: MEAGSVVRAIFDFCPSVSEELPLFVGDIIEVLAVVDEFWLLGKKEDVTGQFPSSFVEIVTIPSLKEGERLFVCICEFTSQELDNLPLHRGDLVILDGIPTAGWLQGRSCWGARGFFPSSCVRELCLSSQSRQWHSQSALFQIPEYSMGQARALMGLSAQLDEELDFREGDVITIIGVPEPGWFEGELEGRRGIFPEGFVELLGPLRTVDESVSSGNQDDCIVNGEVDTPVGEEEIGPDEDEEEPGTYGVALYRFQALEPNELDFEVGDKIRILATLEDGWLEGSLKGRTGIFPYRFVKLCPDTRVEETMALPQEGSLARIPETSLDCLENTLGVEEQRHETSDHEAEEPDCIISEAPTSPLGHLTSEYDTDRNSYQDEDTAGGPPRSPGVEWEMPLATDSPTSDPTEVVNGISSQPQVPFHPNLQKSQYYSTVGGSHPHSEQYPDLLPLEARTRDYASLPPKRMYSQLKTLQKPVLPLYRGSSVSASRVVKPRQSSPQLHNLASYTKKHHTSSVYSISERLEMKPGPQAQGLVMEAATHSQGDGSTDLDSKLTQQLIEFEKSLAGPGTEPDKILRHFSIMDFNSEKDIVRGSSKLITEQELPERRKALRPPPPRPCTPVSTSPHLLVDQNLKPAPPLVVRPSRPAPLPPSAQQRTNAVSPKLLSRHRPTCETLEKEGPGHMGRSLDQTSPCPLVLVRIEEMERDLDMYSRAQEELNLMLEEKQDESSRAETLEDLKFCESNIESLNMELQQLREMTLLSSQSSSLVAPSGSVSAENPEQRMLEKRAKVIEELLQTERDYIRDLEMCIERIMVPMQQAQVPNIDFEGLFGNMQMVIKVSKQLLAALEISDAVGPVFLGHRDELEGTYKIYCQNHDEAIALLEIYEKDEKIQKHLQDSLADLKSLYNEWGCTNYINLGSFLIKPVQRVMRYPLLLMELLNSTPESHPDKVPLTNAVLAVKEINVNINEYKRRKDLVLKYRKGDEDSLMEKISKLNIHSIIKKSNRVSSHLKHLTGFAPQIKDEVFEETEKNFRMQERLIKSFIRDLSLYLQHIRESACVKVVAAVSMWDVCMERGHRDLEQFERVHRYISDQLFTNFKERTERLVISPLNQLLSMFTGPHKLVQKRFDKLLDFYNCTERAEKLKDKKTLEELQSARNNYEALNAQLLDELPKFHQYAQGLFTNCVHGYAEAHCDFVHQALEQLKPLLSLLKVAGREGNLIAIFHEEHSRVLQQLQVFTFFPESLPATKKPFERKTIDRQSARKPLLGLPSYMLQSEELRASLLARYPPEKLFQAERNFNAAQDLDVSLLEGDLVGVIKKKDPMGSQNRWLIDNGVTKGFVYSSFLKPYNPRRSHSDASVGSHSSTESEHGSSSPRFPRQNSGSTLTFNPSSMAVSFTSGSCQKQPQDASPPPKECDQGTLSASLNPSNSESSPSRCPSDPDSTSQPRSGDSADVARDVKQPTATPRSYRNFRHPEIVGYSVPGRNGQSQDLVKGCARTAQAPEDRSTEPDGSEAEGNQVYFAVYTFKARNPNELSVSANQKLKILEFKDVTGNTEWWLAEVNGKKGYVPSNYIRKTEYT

Biological target: miniTurbo-tagged Nedd4-2 (BioID bait) (UniProt Q96PU5)
Assay: proximity labelling; BioID with miniTurbo-tagged Nedd4-2 (tag at N- or C-terminus) in 293 Flp-In T-REx cells; iso- or hyper-osmotic solutions with 50 μM biotin for 1 h; biotin-streptavidin affinity purification and mass spectrometry

- binding: binds
Substance: endogenous Dynamin Binding Protein (DNMBP) (from UniProt Q6XZF7 1-1577)
